Results on 104 sequences are retold here after PubChem BioAssay AID1347423 (Functional Genomics Laboratory (NCATS/FGL), 2020).

Screen size: about 52,000 sequences; about 210 (0.4%) were called active.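 The calls were made as follows: active = gene whose silencing raises cell survival under the drug, median off-target-corrected z-score across its silencing RNAs 2 or more; inactive = the rest.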 This is one part of the list.

The nature of this assay: Resistance to Poly (ADP-Ribose) Polymerase inhibitor: Gene Identification via Genome-wide siRNA Screen. The settings on record: mouse BRCA2 R2336H ES cells, olaparib, CellTiter-Glo viability; stronger effect = higher value. In outline: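 Mouse BRCA2 R2336H ES cells were reverse-transfected with siRNA (20 nM final), treated at 48 h with 500 nM olaparib, and read by CellTiter-Glo after 72 h. Scores: MAD-based z per siRNA, median per gene, seed off-target correction.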
In general terms: Cellular ATP, detected with luciferase, serves as a proxy for viable cell number.
In the case of “CCCUAGGAGUACAUCAAAUTT against 1700001O22Rik”, the z-score was inactive: 1.23.

With “GCAAUGCCUCAUUUCCUUGTT against 4930429A08Rik”, the z-score was inactive: -1.51.

In the case of GCUGUGGAAUAAAACUAUUTT against BC003885, the z-score is inactive: -0.229.

For the sequence GGUAGACUAUGCUAAAUUATT against Pabpc5, the z-score was inactive: 0.646.

For GCCUAUCGUGGAGAUUCUGTT against Cab39l, the z-score was inactive: -0.837.

As for GGCCAUUUCGUACCUUUGUTT against Plxna3, the z-score was inactive: -0.0637.

In the case of GGCAACUAUAAGUACAUAGTT against Gsta3, the z-score was inactive: -0.356.

Take GGAGGAAGUGAAGAAGAUATT against Echdc1: the z-score is inactive: 2.34.

Consider GCUGAAGAAUGCUAUAAUUTT against Olfr63, for which the z-score was inactive: -0.00337.

As to GGCCUAUUCUACCUGUAGCTT against Olfr167, the z-score was inactive: -0.236.

Regarding GGAGAAACUGAUGACAGUGTT against Plcb3, the z-score is active: 1.47.

For the sequence CCAUUGAUCUGAUGCAAAATT against Tacstd1, the z-score is inactive: 1.55.

As to GGUGCCGCCUUUGAUUGCATT against Gsto1, the z-score was inactive: -2.05.

As for GCAUUAUGUCAGUAGCUCATT against Snrpb, the z-score is inactive: -2.71.

Take “CGCCUACUGCUUCAGGAUATT against 1810009H17Rik”: the z-score is inactive: 0.393.

As to GAAAGCUAACCUCUUUCUGTT against Ang2, the z-score is inactive: 0.378.

For the sequence GGAAAUGCCACUAAAGAGUTT against Zdhhc3, the z-score was inactive: -0.899.

Consider “CGGAGUUCAGCAUUUACCCTT against 3110001K24Rik”, for which the z-score is inactive: 0.0824.

As for GGAGGUCCUGAAACACCUCTT against Apc2, the z-score is inactive: 0.268.

As to CCAAUCCCAUCCUCAUCCUTT against Fev, the z-score was inactive: -0.694.

On to GCAGGGACUAACUUUCACCTT against Wdr8, for which the z-score was inactive: -0.321.

As for GCACCUUAAUUCUUCGCCATT against AI415330, the z-score is inactive: 0.624.

With “GGAUACUGCCAUUCAUAGGTT against 9230104L09Rik”, the z-score is inactive: 0.597.

Consider “CGAAUUUACAAGUUGUGCUTT against 1810048J11Rik”, for which the z-score is inactive: 1.36.

Regarding “GGAUCUUAUUAUUUGAUCCTT against 0610027B03Rik”, the z-score was inactive: 0.553.

Regarding GGAGCAUUUUUUUGUUUCUTT against Cul4b, the z-score is inactive: -2.16.

Turning to GGAGUGAAGAUCUGAUUGCTT against Aaas, the z-score was inactive: 0.323.

Regarding “GGACUCGUUGGUCAUGUCUTT against A730098P15”, the z-score was inactive: -0.282.

On to GGAUGGUCUUAGGAUUACGTT against Fgf15, for which the z-score is inactive: 1.1.

Consider “GCUAAUGCUAGUGAAAUUCTT against 3000004N20Rik”, for which the z-score is inactive: 0.979.

On to GGUCAUGGUCUGAGAUUCUTT against Txnl4, for which the z-score is inactive: 0.353.

GCUACGACGUAACUGACAATT against Rpl3l: the z-score was inactive: 0.232.

In the case of GGUGUGAAACGAAAAAAGATT against Hivep1, the z-score was inactive: 0.43.

CCACUCAACAUGACAACUATT against Chrna2: the z-score is inactive: -0.0952.

Turning to GGAGAAUGUGCAUAAACUGTT against Pitpn, the z-score is inactive: -2.

In the case of GCCUUAGAAGUUAACAUGUTT against AI848100, the z-score was inactive: 0.246.

On to GGCCAUGCCUUUGUAUGCUTT against Oatl1, for which the z-score is inactive: 2.1.

Regarding GGCGAAUGCAUAAACUAAATT against Abat, the z-score is inactive: 0.779.

Take CGACCUGACCUUUUUUUCCTT against Ipmk: the z-score is inactive: -0.069.

As for GCAAGUCGUAAGCCUCAGGTT against Mrps10, the z-score was inactive: 0.0595.

In the case of GGUGUCACAUUCUUUUUUUTT against Pcolce2, the z-score was inactive: 0.35.

As to GAGCAGCUGAUCACUGGAATT against Tuba3, the z-score is inactive: 0.645.

For GCGAGUUGAUGAGCUCUAGTT against Sult1b1, the z-score is inactive: -1.53.

On to GGUUGAAGUCUAUUCUCGATT against Trap1, for which the z-score was inactive: 0.329.

Take GGAAGAACAGGAAGAAGUGTT against Pank1: the z-score was inactive: -0.356.

For the sequence CGACAUAGCAAUCACAUGATT against Lmo2, the z-score was inactive: 1.23.

On to CGCAAACCUACAGCUCUGATT against Rhox10, for which the z-score was inactive: -1.11.

On to GCCGGAAUGAAUACAUGCGTT against Elk1, for which the z-score was inactive: 1.13.

“CCAAAGUUCCCUUAGCCAUTT against 9830165K03Rik”: the z-score was inactive: 1.04.

With “GGUACCUUUGCUACAUAAATT against D5Ertd577e”, the z-score was inactive: -2.08.

Consider GGAUCAAGUCCAAUCUAAATT against Cdh5, for which the z-score was inactive: 0.388.

As for GCAUGUGCUCCUUUUGUCGTT against C2a, the z-score was inactive: 0.664.

Turning to CCUUCAUGUGCAAGGUUGUTT against Ccr9, the z-score was inactive: 1.34.

Take GGUAUAUUCGGAAACCUAUTT against Abi1: the z-score is inactive: -0.262.

With CCAAACACGACGUGAAGGUTT against D7Wsu128e, the z-score is inactive: -0.165.

On to GGUCUGGAUCUUGUGACCUTT against Tcstv1, for which the z-score is inactive: -0.126.

As for GCUUUCUUUAUAUUGACUGTT against Olfr692, the z-score was inactive: -0.648.

As for GGCAUGGACCAAAUAAAUATT against Snap23, the z-score was inactive: -1.8.

For the sequence “GGAUGCAACUAAAAUCAGCTT against 2900093B09Rik”, the z-score is inactive: 0.383.

On to GGGACUAAUGUUUUGCCUATT against Krt1-16, for which the z-score is inactive: -1.46.

For the sequence “GGAGACUGCUAUAUUGGCUTT against 1700092C17Rik”, the z-score was inactive: 1.22.

For the sequence GGACCUCUUCAAUUGGACATT against Fut4, the z-score was inactive: 0.776.

For “GCCUAAGCGAAAGUCUCUCTT against 5133400D11Rik”, the z-score is inactive: 0.878.

Regarding GCUGAUGCGGAGAUUUUGGTT against Prkrir, the z-score was inactive: 1.67.

Regarding GGAGUUGAAACUGAAUACATT against Pramel7, the z-score is inactive: 0.898.

As to CGAUGUUAUCAGUUUCAUATT against Sema3d, the z-score was inactive: 1.09.

Take GGAGCUUAUCAACUACUAUTT against Cltc: the z-score is inactive: -1.9.

For “GGAUGGAUCAAUUCAACCATT against 3200001F09Rik”, the z-score was inactive: 0.351.

For the sequence “GGUUUCAUAAAUUCAGUGGTT against 0610010K06Rik”, the z-score is inactive: -0.366.

Turning to GGCAAUAACAUUCGGUAUUTT against Snrpd1, the z-score is inactive: -0.222.

On to CCUCCCUAAGGUUAUAGACTT against BC016076, for which the z-score was inactive: 0.467.

Take GGUGGCUAUUGUCUUCAAGTT against Ppp2r4: the z-score is inactive: 0.609.

Take “GGAGCAUCCUUCAACUUCUTT against A230020G22Rik”: the z-score is inactive: 0.915.

Turning to GGAUGCUGAUUGAAUUCUATT against Slc16a9, the z-score was inactive: -0.513.

In the case of GGCAAGAAAGGACCAAUGGTT against Cln8, the z-score was inactive: -2.08.

Regarding CCUUCUCAUAGUGAAAGUATT against Zfp95, the z-score was inactive: 1.12.

Consider GGAUGCUAAAAAACCAAUGTT against Ndufs1, for which the z-score was inactive: 1.01.

Regarding GGUCGAACGAUUCUGCUGUTT against Slfn5, the z-score was inactive: -0.209.

GGCCAAGUUCUACAAUGACTT against Ptp4a3: the z-score was inactive: -0.421.

Turning to CGUGUUCAGCGUAGAAACUTT against Ttll1, the z-score is inactive: -1.01.

Take CGAAUGCUUGGAGAACAAUTT against Scube2: the z-score is inactive: -0.0817.

Take GGUCUCAAAUCACUAGAGUTT against Lum: the z-score is inactive: 0.16.

As to GGAGCGUGUGGAAGAAAAATT against Nedd8, the z-score is inactive: -3.07.

For the sequence GGAAAACUAGUGUUGCUAUTT against Ptbp2, the z-score was inactive: -0.614.

Take “GGUAGUUGGGACGAUCAUATT against 3110070M22Rik”: the z-score is inactive: -1.48.

Regarding GGGAGUUAAACUUCUCUGCTT against Tlr13, the z-score was inactive: -1.15.

GGAGAUGACAGAUGACCUUTT against Glyat: the z-score is inactive: 0.023.

“GGUAUCCUGAUUGUUGAGUTT against 4930417G10Rik”: the z-score is inactive: 0.971.

On to GCCAAAUCUGCGUGAAUUATT against Lrp8, for which the z-score is inactive: -0.945.

Consider GGCUCAAGUUACUUGCUAUTT against Fras1, for which the z-score is inactive: 0.402.

In the case of GCGACCUUAGACAUUUGCATT against Prkrip1, the z-score is inactive: 0.888.

With GGAAAAUAAGCUAAGGAAGTT against Peg12, the z-score was inactive: 0.226.

With GGCUAAACCUACAAUAUGUTT against Tnrc9, the z-score was inactive: -0.181.

As for GCCUGUUUACGGUUUUUCUTT against Prkab2, the z-score is inactive: 0.919.

Regarding “CCUAUCUUUACCACAUAGATT against 9030624J02Rik”, the z-score is inactive: -0.939.

Take GGAGAGGUGGUAUUGUUGGTT against Olfr1297: the z-score was inactive: 0.686.

Turning to GGUCUGAUACCUCAUUCCATT against Il22ra2, the z-score is inactive: 0.26.

Regarding GGCUGGUCAAAAUUUGGAATT against Cdca2, the z-score was inactive: 0.406.

Take GCCUUUGCACAGUUUGGACTT against BC002059: the z-score was inactive: -0.0138.

For CCCUGACAAUCUUUAUUUCTT against Olfr883, the z-score was inactive: 0.676.

Take GGAUGGACAUCCAAGCAGGTT against Fabp9: the z-score was inactive: -0.506.

Consider GCGGUUAUAAUGGGACCAUTT against Knsl7, for which the z-score was inactive: 0.837.

Consider GGUCUGUAACUGGUUCAUCTT against Tgif, for which the z-score is inactive: -2.58.

In the case of GGAGAUGAAGUGGACAGACTT against Anapc13, the z-score was inactive: -2.22.
